Test results reported in PubChem BioAssay AID493014 (National Center for Advancing Translational Sciences (NCATS), 2011).
The list shows a part of the results. Further columns of the screen follow, without active or inactive calls. Compounds called inactive in the main read-out are mostly missing here. The note in brackets gives the kind of curve behind each potency; many fits are weak.

Experiment: qHTS Assay to Find Inhibitors of Chronic Active B-Cell Receptor Signaling
Conditions: ABC-DLBCL IkBa-CBG/CBR reporter, luminescence ratio (green luciferase fused to IkBa over red control in TMD8 lymphoma cells), 4 h
Summary of the method: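 TMD8 human ABC-DLBCL cells with doxycycline-inducible IκBα–green luciferase fusion and unfused red luciferase, in 0.5% FBS medium; compounds up to 46 uM, 4 h at 37C. Green/red luminescence ratio, filter-overlap corrected, fitted to concentration-response curves.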

[1] = measured here: CBR red luminescence, cell number
[2] = measured here: IkBa-CBG green luminescence

Row | Compound | AC50 [1] | AC50 [2]
1 | CCC1=Nc2cc(C(=O)NCc3ccco3)ccc2Sc2ccccc21 | 11.6 µM [rising, partial curve] | 11.6 µM [falling, partial curve]
2 | COc1ccc(/C=C2\SC(=S)N(CC(=O)NCCO)C2=O)cc1 | 5.01 µM [falling, partial curve] | –
3 | Cc1ccc(/C=N/NC(=O)CSc2nc3ccccc3n2Cc2ccccc2)o1 | 9.2 µM [falling, partial curve, poor fit] | –
4 | CCOC(=O)NC(c1ccccc1)C1CCCCC1=O (stereo not drawn) | 3.66 µM [falling, partial curve] | 2.31 µM [rising, partial curve, poor fit]
5 | COc1ccc(OC)c(CCNC(=O)CC2(CC3=NS(=O)(=O)c4ccccc4N3)CCCC2)c1 | 8.91 µM [falling, partial curve, poor fit] | –
6 | Cc1ccc(-c2cc(C(=O)O)c3cc(Br)ccc3n2)s1 | 2.82 µM [falling, full curve, poor fit] | –
7 | O=c1[nH][nH]c(C(F)(F)F)c1C=Nc1cccc(Cl)c1 | 12.6 µM [rising, partial curve] | –
8 | COc1ccc(/C=C/C(=O)c2ccc(C)c([N+](=O)[O-])c2)cc1O | – | 29.1 µM [falling, single point]
9 | COc1cc(NC(=O)CSCc2ccc(Cl)cc2Cl)c(C(=O)O)cc1OC | 35.5 µM [falling, single point] | –
10 | COc1ccccc1CN(Cc1nc2ccccc2c(=O)[nH]1)S(=O)(=O)c1ccc(C)cc1 | 0.651 µM [falling, full curve, poor fit] | –
11 | O=C1c2ccccc2S(=O)(=O)N1Cc1nnc(-c2ccccc2Br)o1 | 6.51 µM [falling, partial curve, poor fit] | –
12 | CC(C)CCNC(=O)COC(=O)c1cc(Br)c(Br)s1 | 35.5 µM [rising, single point] | –
13 | CCN(CC)CCNC(=O)c1c(O)c2cccc3c2n(c1=O)CCC3 | 22.4 µM [falling, single point] | –
14 | Cc1cccn2c(=O)c(C=O)c(Cl)nc12 | 22.4 µM [falling, single point] | 12.6 µM [rising, partial curve, poor fit]
15 | Cc1cccc(C)c1NC(=S)N1CCCN(Cc2ccc(F)cc2)C1 | 12.6 µM [falling, single point] | –
16 | COc1cc2ncnc(NCc3ccc(C)cc3)c2cc1OC | 29.1 µM [falling, single point] | –
17 | COc1cccc(NC(=O)c2ccnc(N3CCC(C(=O)NCc4cc(OC)ccc4OC)CC3)c2)c1 | 35.5 µM [falling, single point] | –
18 | COc1ccc(-c2ccc(CCC(=O)O)n2NC(N)=O)cc1 | 11.2 µM [falling, partial curve] | –
19 | COc1ccc(-c2csc3ncnc(Sc4nnnn4C)c23)cc1 | 6.51 µM [falling, full curve] | –
20 | Cc1nc(Cl)sc1C(=O)Nc1ccc(C(C)(C)C)cc1 | 1.26 µM [falling, partial curve, poor fit] | –

One compound at a time, from the list above.
CCC1=Nc2cc(C(=O)NCc3ccco3)ccc2Sc2ccccc21 in the list: AC50 [1]: 11.6 µM [rising, partial curve]; AC50 [2]: 11.6 µM [falling, partial curve]
Cc1nc(Cl)sc1C(=O)Nc1ccc(C(C)(C)C)cc1 in the list: AC50 [1]: 1.26 µM [falling, partial curve, poor fit]

More entries

Row | Compound | AC50 [1] | AC50 [2]
21 | CCCCC1CCC(C(=O)Nc2ccccc2N2CCOCC2)CC1 (stereo not drawn) | 32.6 µM [rising, partial curve, poor fit] | –
22 | Cc1cc(NC(=O)/C=C/C(=O)N(CC(=O)NC2CCCC2)c2cccc3ccccc23)no1 | – | 14.1 µM [rising, partial curve, poor fit]
23 | Cc1cc(C)n2nc(C(=O)Nc3ccc4c(c3)CCC4)nc2n1 | 0.251 µM [rising, full curve, poor fit] | –
24 | CC1=CC(c2ccc(Cl)cc2)n2nc(NC(=O)CCCC(=O)O)nc2N1 (stereo not drawn) | 0.631 µM [rising, partial curve, poor fit] | –
25 | CN(CC(=O)NCc1ccccc1)S(=O)(=O)c1cnc[nH]1 | 29.1 µM [rising, single point] | –
26 | O=C(Nc1ccc2c(c1)OCO2)C(c1ccccc1)N1CCN(C(=O)c2ccco2)CC1 (stereo not drawn) | 1.46 µM [rising, partial curve, poor fit] | –
27 | C=CC[C@@H](CC(=O)N(CCO)Cc1ccccc1)C(=O)N[C@H](COC(=O)[C@@H](CC=C)Cc1ccc(F)cc1)Cc1ccccc1 | 29.1 µM [falling, single point] | –
28 | CCN1C(=O)NC(c2cccnc2)C(C(=O)OC)=C1C (stereo not drawn) | 2.31 µM [falling, partial curve, poor fit] | –
29 | COc1ccc(CNCCC(c2ccccc2)c2ccc(OC(C)C)cc2)cc1OC (stereo not drawn) | 35.5 µM [falling, single point] | –
30 | COc1ccc(OC)c(N(CC(=O)NN=C2CCN(C)CC2)S(=O)(=O)c2ccccc2)c1 | 3.16 µM [falling, partial curve, poor fit] | –
31 | CC(=O)OC(C(=O)NCc1ccco1)c1cccnc1 (stereo not drawn) | 5.8 µM [falling, single point] | –
32 | COc1ccc(C(=O)OC2CCN(c3ncc(C(F)(F)F)cc3Cl)CC2)cc1 | 0.112 µM [rising, full curve, poor fit] | –
33 | CC1CCN(C(=O)c2cc3ccccc3o2)CC1 | 4.61 µM [rising, single point] | –
34 | CC1c2ccccc2SC(CCCN(C)C)c2ccccc21 (stereo not drawn) | 18.4 µM [falling, single point] | –
35 | COc1ccc(C(=O)NNC2=C(C(=O)C(F)(F)F)CCC2)cc1 | 2 µM [falling, full curve, poor fit] | –
36 | O=C(Nc1ccc2c(c1)OCO2)c1ccccn1 | 20.6 µM [falling, single point] | –
37 | CC(=O)Nc1ccc(S(=O)(=O)NCc2cn3ccsc3n2)cc1 | 6.51 µM [falling, single point] | –
38 | C=CCc1c(O)c(CC)cc2c(C)cc(=O)oc12 | 3.16 µM [rising, partial curve, poor fit] | –
39 | COn1c(SCc2ccc(Cl)cc2)nc2ccccc2c1=O | 7.08 µM [rising, partial curve] | –
40 | CN(C)CCCNC(=O)c1cc(C(=O)c2ccccc2)c[nH]1 | 1.12 µM [falling, full curve] | –
